4 molecules from paper PMC10521137 can be followed below.

Protein sequences, listed by entry. Tags and fused reporters are not part of them.
UniProt P22216: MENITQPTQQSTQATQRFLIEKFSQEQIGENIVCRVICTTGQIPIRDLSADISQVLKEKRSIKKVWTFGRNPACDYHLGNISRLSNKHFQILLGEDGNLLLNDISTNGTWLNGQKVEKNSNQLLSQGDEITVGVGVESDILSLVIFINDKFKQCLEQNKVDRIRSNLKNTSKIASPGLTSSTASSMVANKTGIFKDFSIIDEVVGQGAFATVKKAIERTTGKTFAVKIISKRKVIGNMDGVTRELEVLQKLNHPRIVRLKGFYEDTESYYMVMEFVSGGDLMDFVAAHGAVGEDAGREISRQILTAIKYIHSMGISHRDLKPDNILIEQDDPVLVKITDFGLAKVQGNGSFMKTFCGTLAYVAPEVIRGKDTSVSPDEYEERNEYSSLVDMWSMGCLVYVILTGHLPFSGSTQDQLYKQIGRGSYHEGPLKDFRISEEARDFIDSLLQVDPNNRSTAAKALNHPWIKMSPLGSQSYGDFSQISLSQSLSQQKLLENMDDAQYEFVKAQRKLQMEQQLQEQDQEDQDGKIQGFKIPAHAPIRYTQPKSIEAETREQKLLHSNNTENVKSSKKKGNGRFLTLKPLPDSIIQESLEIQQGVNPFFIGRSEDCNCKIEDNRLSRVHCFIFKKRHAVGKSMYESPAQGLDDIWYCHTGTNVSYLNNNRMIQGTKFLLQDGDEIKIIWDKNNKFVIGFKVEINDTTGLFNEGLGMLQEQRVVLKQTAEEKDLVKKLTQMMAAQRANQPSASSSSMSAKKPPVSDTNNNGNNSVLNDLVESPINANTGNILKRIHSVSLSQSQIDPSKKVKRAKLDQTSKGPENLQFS

These are yes or no findings as the source states them, for the method shown. For some of these results: Binding seen in cells or lysates may run through a third protein. Some binding calls cover weakened binding; strength is not graded here. For some of these results: Tags and fused reporters may be left off the sequences shown.

Assay [1] has as its target full length Rad53 (yeast two-hybrid) (S. cerevisiae) (UniProt P22216). Put plainly: two-hybrid; yeast two-hybrid in L40 diploid strain with bait and prey plasmids; growth on selective -L-T-H against non-selective -L-T plates, 3 days.
For assay [2], the target named is internally tagged Rad53-6HA (S. cerevisiae) (UniProt P22216). Put plainly: co-IP; anti-HA immunoprecipitation of internally tagged Rad53-6HA from yeast strains with POL1-13myc, arrested in 200 mM HU or released from G1 into S-phase with or without HU.
The target in a further assay is Rad53-FP (S. cerevisiae) (UniProt P22216). The assay can be described thus: split reporter; BiFC with split YFP in living yeast: Y-Pol1 and Rad53-FP; cells released from G1 into 200 mM HU for 60 minutes or into S-phase without HU; nuclear fluorescence by confocal microscopy.
In assay [3] the target is T1, Pol12, full length (yeast two-hybrid) (S. cerevisiae) (UniProt P38121).
T1 sequence: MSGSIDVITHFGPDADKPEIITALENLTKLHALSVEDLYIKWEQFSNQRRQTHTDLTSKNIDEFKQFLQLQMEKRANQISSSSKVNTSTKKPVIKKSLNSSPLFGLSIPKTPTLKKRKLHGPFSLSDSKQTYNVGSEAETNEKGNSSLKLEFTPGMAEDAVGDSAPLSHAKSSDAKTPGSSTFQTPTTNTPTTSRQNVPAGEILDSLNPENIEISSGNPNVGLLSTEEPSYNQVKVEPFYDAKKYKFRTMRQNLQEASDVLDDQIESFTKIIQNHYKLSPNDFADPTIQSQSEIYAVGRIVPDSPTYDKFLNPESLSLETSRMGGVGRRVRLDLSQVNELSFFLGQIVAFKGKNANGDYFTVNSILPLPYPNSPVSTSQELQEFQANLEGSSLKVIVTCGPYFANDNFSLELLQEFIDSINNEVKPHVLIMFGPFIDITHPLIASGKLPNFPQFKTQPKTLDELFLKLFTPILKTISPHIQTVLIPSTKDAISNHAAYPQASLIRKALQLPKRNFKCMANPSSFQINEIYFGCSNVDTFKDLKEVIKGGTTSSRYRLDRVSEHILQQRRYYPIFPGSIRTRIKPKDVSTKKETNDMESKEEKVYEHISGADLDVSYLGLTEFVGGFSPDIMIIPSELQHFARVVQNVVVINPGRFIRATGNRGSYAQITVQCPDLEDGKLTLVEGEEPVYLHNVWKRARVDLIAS
Put plainly: two-hybrid; yeast two-hybrid in L40 diploid strain with bait and prey plasmids; growth on selective -L-T-H against non-selective -L-T plates, 3 days.

B1: Pol12, full length (yeast two-hybrid) (protein, UniProt P38121 1-705)
chain: MSGSIDVITHFGPDADKPEIITALENLTKLHALSVEDLYIKWEQFSNQRRQTHTDLTSKNIDEFKQFLQLQMEKRANQISSSSKVNTSTKKPVIKKSLNSSPLFGLSIPKTPTLKKRKLHGPFSLSDSKQTYNVGSEAETNEKGNSSLKLEFTPGMAEDAVGDSAPLSHAKSSDAKTPGSSTFQTPTTNTPTTSRQNVPAGEILDSLNPENIEISSGNPNVGLLSTEEPSYNQVKVEPFYDAKKYKFRTMRQNLQEASDVLDDQIESFTKIIQNHYKLSPNDFADPTIQSQSEIYAVGRIVPDSPTYDKFLNPESLSLETSRMGGVGRRVRLDLSQVNELSFFLGQIVAFKGKNANGDYFTVNSILPLPYPNSPVSTSQELQEFQANLEGSSLKVIVTCGPYFANDNFSLELLQEFIDSINNEVKPHVLIMFGPFIDITHPLIASGKLPNFPQFKTQPKTLDELFLKLFTPILKTISPHIQTVLIPSTKDAISNHAAYPQASLIRKALQLPKRNFKCMANPSSFQINEIYFGCSNVDTFKDLKEVIKGGTTSSRYRLDRVSEHILQQRRYYPIFPGSIRTRIKPKDVSTKKETNDMESKEEKVYEHISGADLDVSYLGLTEFVGGFSPDIMIIPSELQHFARVVQNVVVINPGRFIRATGNRGSYAQITVQCPDLEDGKLTLVEGEEPVYLHNVWKRARVDLIAS
As to B1, the binding result in assay [1] was “no binding”.

B2: Pol1-13myc (protein, UniProt P13382 1-1468)
chain: MSSKSEKLEKLRKLQAARNGTSIDDYEGDESDGDRIYDEIDEKEYRARKRQELLHDDFVVDDDGVGYVDRGVEEDWREVDNSSSDEDTGNLASKDSKRKKNIKREKDHQITDMLRTQHSKSTLLAHAKKSQKKSIPIDNFDDILGEFESGEVEKPNILLPSKLRENLNSSPTSEFKSSIKRVNGNDESSHDAGISKKVKIDPDSSTDKYLEIESSPLKLQSRKLRYANDVQDLLDDVENSPVVATKRQNVLQDTLLANPPSAQSLADEEDDEDSDEDIILKRRTMRSVTTTRRVNIDSRSNPSTSPFVTAPGTPIGIKGLTPSKSLQSNTDVATLAVNVKKEDVVDPETDTFQMFWLDYCEVNNTLILFGKVKLKDDNCVSAMVQINGLCRELFFLPREGKTPTDIHEEIIPLLMDKYGLDNIRAKPQKMKYSFELPDIPSESDYLKVLLPYQTPKSSRDTIPSDLSSDTFYHVFGGNSNIFESFVIQNRIMGPCWLDIKGADFNSIRNASHCAVEVSVDKPQNITPTTTKTMPNLRCLSLSIQTLMNPKENKQEIVSITLSAYRNISLDSPIPENIKPDDLCTLVRPPQSTSFPLGLAALAKQKLPGRVRLFNNEKAMLSCFCAMLKVEDPDVIIGHRLQNVYLDVLAHRMHDLNIPTFSSIGRRLRRTWPEKFGRGNSNMNHFFISDICSGRLICDIANEMGQSLTPKCQSWDLSEMYQVTCEKEHKPLDIDYQNPQYQNDVNSMTMALQENITNCMISAEVSYRIQLLTLTKQLTNLAGNAWAQTLGGTRAGRNEYILLHEFSRNGFIVPDKEGNRSRAQKQRQNEENADAPVNSKKAKYQGGLVFEPEKGLHKNYVLVMDFNSLYPSIIQEFNICFTTVDRNKEDIDELPSVPPSEVDQGVLPRLLANLVDRRREVKKVMKTETDPHKRVQCDIRQQALKLTANSMYGCLGYVNSRFYAKPLAMLVTNKGREILMNTRQLAESMNLLVVYGDTDSVMIDTGCDNYADAIKIGLGFKRLVNERYRLLEIDIDNVFKKLLLHAKKKYAALTVNLDKNGNGTTVLEVKGLDMKRREFCPLSRDVSIHVLNTILSDKDPEEALQEVYDYLEDIRIKVETNNIRIDKYKINMKLSKDPKAYPGGKNMPAVQVALRMRKAGRVVKAGSVITFVITKQDEIDNAADTPALSVAERAHALNEVMIKSNNLIPDPQYYLEKQIFAPVERLLERIDSFNVVRLSEALGLDSKKYFRREGGNNNGEDINNLQPLETTITDVERFKDTVTLELSCPSCDKRFPFGGIVSSNYYRVSYNGLQCKHCEQLFTPLQLTSQIEHSIRAHISLYYAGWLQCDDSTCGIVTRQVSVFGKRCLNDGCTGVMRYKYSDKQLYNQLLYFDSLFDCEKNKKQELKPIYLPDDLDYPKEQLTESSIKALTEQNRELMETGRSVVQKYLNDCGRRYVDMTSIFDFMLN
Regarding B2, the binding result in assay [2] is recorded as “binds”.

B3: Y-Pol1 (protein, UniProt P13382 1-1468)
chain: MSSKSEKLEKLRKLQAARNGTSIDDYEGDESDGDRIYDEIDEKEYRARKRQELLHDDFVVDDDGVGYVDRGVEEDWREVDNSSSDEDTGNLASKDSKRKKNIKREKDHQITDMLRTQHSKSTLLAHAKKSQKKSIPIDNFDDILGEFESGEVEKPNILLPSKLRENLNSSPTSEFKSSIKRVNGNDESSHDAGISKKVKIDPDSSTDKYLEIESSPLKLQSRKLRYANDVQDLLDDVENSPVVATKRQNVLQDTLLANPPSAQSLADEEDDEDSDEDIILKRRTMRSVTTTRRVNIDSRSNPSTSPFVTAPGTPIGIKGLTPSKSLQSNTDVATLAVNVKKEDVVDPETDTFQMFWLDYCEVNNTLILFGKVKLKDDNCVSAMVQINGLCRELFFLPREGKTPTDIHEEIIPLLMDKYGLDNIRAKPQKMKYSFELPDIPSESDYLKVLLPYQTPKSSRDTIPSDLSSDTFYHVFGGNSNIFESFVIQNRIMGPCWLDIKGADFNSIRNASHCAVEVSVDKPQNITPTTTKTMPNLRCLSLSIQTLMNPKENKQEIVSITLSAYRNISLDSPIPENIKPDDLCTLVRPPQSTSFPLGLAALAKQKLPGRVRLFNNEKAMLSCFCAMLKVEDPDVIIGHRLQNVYLDVLAHRMHDLNIPTFSSIGRRLRRTWPEKFGRGNSNMNHFFISDICSGRLICDIANEMGQSLTPKCQSWDLSEMYQVTCEKEHKPLDIDYQNPQYQNDVNSMTMALQENITNCMISAEVSYRIQLLTLTKQLTNLAGNAWAQTLGGTRAGRNEYILLHEFSRNGFIVPDKEGNRSRAQKQRQNEENADAPVNSKKAKYQGGLVFEPEKGLHKNYVLVMDFNSLYPSIIQEFNICFTTVDRNKEDIDELPSVPPSEVDQGVLPRLLANLVDRRREVKKVMKTETDPHKRVQCDIRQQALKLTANSMYGCLGYVNSRFYAKPLAMLVTNKGREILMNTRQLAESMNLLVVYGDTDSVMIDTGCDNYADAIKIGLGFKRLVNERYRLLEIDIDNVFKKLLLHAKKKYAALTVNLDKNGNGTTVLEVKGLDMKRREFCPLSRDVSIHVLNTILSDKDPEEALQEVYDYLEDIRIKVETNNIRIDKYKINMKLSKDPKAYPGGKNMPAVQVALRMRKAGRVVKAGSVITFVITKQDEIDNAADTPALSVAERAHALNEVMIKSNNLIPDPQYYLEKQIFAPVERLLERIDSFNVVRLSEALGLDSKKYFRREGGNNNGEDINNLQPLETTITDVERFKDTVTLELSCPSCDKRFPFGGIVSSNYYRVSYNGLQCKHCEQLFTPLQLTSQIEHSIRAHISLYYAGWLQCDDSTCGIVTRQVSVFGKRCLNDGCTGVMRYKYSDKQLYNQLLYFDSLFDCEKNKKQELKPIYLPDDLDYPKEQLTESSIKALTEQNRELMETGRSVVQKYLNDCGRRYVDMTSIFDFMLN
Turning to B3, the binding entry with Rad53-FP (S. cerevisiae) is “binds”.

B4: Pol1-1A (T402A), full length (yeast two-hybrid) (protein, UniProt P13382 1-1468)
chain: MSSKSEKLEKLRKLQAARNGTSIDDYEGDESDGDRIYDEIDEKEYRARKRQELLHDDFVVDDDGVGYVDRGVEEDWREVDNSSSDEDTGNLASKDSKRKKNIKREKDHQITDMLRTQHSKSTLLAHAKKSQKKSIPIDNFDDILGEFESGEVEKPNILLPSKLRENLNSSPTSEFKSSIKRVNGNDESSHDAGISKKVKIDPDSSTDKYLEIESSPLKLQSRKLRYANDVQDLLDDVENSPVVATKRQNVLQDTLLANPPSAQSLADEEDDEDSDEDIILKRRTMRSVTTTRRVNIDSRSNPSTSPFVTAPGTPIGIKGLTPSKSLQSNTDVATLAVNVKKEDVVDPETDTFQMFWLDYCEVNNTLILFGKVKLKDDNCVSAMVQINGLCRELFFLPREGKAPTDIHEEIIPLLMDKYGLDNIRAKPQKMKYSFELPDIPSESDYLKVLLPYQTPKSSRDTIPSDLSSDTFYHVFGGNSNIFESFVIQNRIMGPCWLDIKGADFNSIRNASHCAVEVSVDKPQNITPTTTKTMPNLRCLSLSIQTLMNPKENKQEIVSITLSAYRNISLDSPIPENIKPDDLCTLVRPPQSTSFPLGLAALAKQKLPGRVRLFNNEKAMLSCFCAMLKVEDPDVIIGHRLQNVYLDVLAHRMHDLNIPTFSSIGRRLRRTWPEKFGRGNSNMNHFFISDICSGRLICDIANEMGQSLTPKCQSWDLSEMYQVTCEKEHKPLDIDYQNPQYQNDVNSMTMALQENITNCMISAEVSYRIQLLTLTKQLTNLAGNAWAQTLGGTRAGRNEYILLHEFSRNGFIVPDKEGNRSRAQKQRQNEENADAPVNSKKAKYQGGLVFEPEKGLHKNYVLVMDFNSLYPSIIQEFNICFTTVDRNKEDIDELPSVPPSEVDQGVLPRLLANLVDRRREVKKVMKTETDPHKRVQCDIRQQALKLTANSMYGCLGYVNSRFYAKPLAMLVTNKGREILMNTRQLAESMNLLVVYGDTDSVMIDTGCDNYADAIKIGLGFKRLVNERYRLLEIDIDNVFKKLLLHAKKKYAALTVNLDKNGNGTTVLEVKGLDMKRREFCPLSRDVSIHVLNTILSDKDPEEALQEVYDYLEDIRIKVETNNIRIDKYKINMKLSKDPKAYPGGKNMPAVQVALRMRKAGRVVKAGSVITFVITKQDEIDNAADTPALSVAERAHALNEVMIKSNNLIPDPQYYLEKQIFAPVERLLERIDSFNVVRLSEALGLDSKKYFRREGGNNNGEDINNLQPLETTITDVERFKDTVTLELSCPSCDKRFPFGGIVSSNYYRVSYNGLQCKHCEQLFTPLQLTSQIEHSIRAHISLYYAGWLQCDDSTCGIVTRQVSVFGKRCLNDGCTGVMRYKYSDKQLYNQLLYFDSLFDCEKNKKQELKPIYLPDDLDYPKEQLTESSIKALTEQNRELMETGRSVVQKYLNDCGRRYVDMTSIFDFMLN
Consider B4, for which the binding result in assay [3] was “binds”.
